In all, about 410,000 compounds went through this assay and about 18,000 (4.4%) were called active. The inconclusive results got no clear call from the source; some entries with a clear call stand among them for comparison. No stated cut-off is given here; in the data, active means activity change below about -60%; inconclusive means no clear call, values can overlap the other calls; inactive means above about -39%.
assay: qHTS Assay for inhibitors of the human cytomegalovirus (HCMV); conditions: HFF cells, HCMV-luciferase reporter, 72 h; at 57.5 µM; hits give low values
Summary of the method: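 Cell-based, HFFs, 1000 cells/well, 16 h 37C; cpds in DMSO + HCMV-luc, MOI 1 PFU/cell; 72 h 37C; OneGlo luminescence after 5 min RT; norm. to buffer vs Salinomycin 10uM.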
On the % scale 0 is the no-effect control and ±100 the full control effect.

Row | Structure (SMILES) | activity change, negative = inhibition
1 | Cc1cccc(N2CCN(C(=O)CCNS(=O)(=O)c3ccc4c(c3)CCN4C(=O)C3CC3)CC2)c1C | inconclusive: -43.8%
2 | COc1ccc2nc(NC(=O)c3nc(S(=O)(=O)Cc4ccc(C)cc4)ncc3Cl)sc2c1 | active: -99.6%
3 | COc1cccc(CNC(=O)C2=C(C)C(=O)OC23CCCCCC3)c1 | inconclusive: 0%
4 | O=C(NC1CCCCC1)C(c1ccncc1)N(C(=O)Cn1nnc(-c2cccs2)n1)C1CCCC1 (stereo not drawn) | inconclusive: -44%
5 | COCCCN1C(=O)c2ccc(C(=O)OCC(=O)N3CCN(c4ccccc4)CC3)cc2C1=O | inconclusive: -41.7%
6 | C=CCSc1nnc(NC(=O)C2=COCCO2)s1 | inactive: 77.3%
7 | Cc1cc(C)n2nc(SCC(=O)NC3CCCC(C)C3C)nc2n1 (stereo not drawn) | inconclusive: 0%
8 | Oc1ccc(C[C@H]2CN([C@@H](Cc3ccc(O)cc3)CN3CCC[C@@H]3CN3C(=S)NC[C@@H]3Cc3ccccc3)C(=S)N2CC2CCCCCC2)cc1 | active: -97.2%
9 | Oc1oc(-c2cccc3ccccc23)nc1/C=N/c1nccs1 | inconclusive: -54.8%
10 | COC(c1ccccc1)c1nnc(CCC(=O)N(C)C(C2CC2)C2CC2)o1 (stereo not drawn) | inconclusive: -46.8%
11 | O=[N+]([O-])c1ccc(Nc2ccc(F)cc2)cc1 | inconclusive: -48.9%
12 | COc1cccc(/C=C2\Sc3ccc(C(=O)NCC4CCCO4)cc3N(C)C2=O)c1 (stereo not drawn) | inactive: -14.4%
13 | CCOc1ccc(C(=O)CCC(=O)Nc2cccc(S(=O)(=O)N3CCCCC3)c2)cc1 | inactive: -12.6%
14 | CCN(CC)C(=O)[C@H]1C[C@H](CC(=O)NCc2ccco2)C(=O)N2CCc3c([nH]c4cc(CCC(=O)N(C)C)ccc34)[C@]12C | inactive: 18.3%
15 | Cc1nc(-c2ccccc2)sc1C(N)=O | inactive: 81.8%
16 | C=C1CC2(OC1=O)c1ccccc1CCc1ccccc12 | active: -97.4%
17 | Cc1ccc(C(=O)NC(=S)NCc2cccnc2)c(C)c1 | inconclusive: -55%
18 | CCc1ccc(NC(=O)CCCc2nnc3n(C(C)CC)c(=O)c4sccc4n23)cc1 (stereo not drawn) | inconclusive: -46.3%
20 | COc1cccc(OCC(O)CN2CCN(CCN3C(=O)c4cccc5cccc(c45)C3=O)CC2)c1 (stereo not drawn) | inconclusive: -58.3%
21 | CCOC(=O)c1cnc2c3c(noc13)CCC2 | active: -101%
22 | CCOc1ccc(CN2CCC(C(=O)Nc3cccc(-c4ccn[nH]4)c3)CC2)cc1Cl | inactive: -28.6%
23 | COc1ccc(NC(=O)c2ccco2)cc1NC(=O)c1cc(Br)ccc1Cl | inconclusive: -55.5%

An excerpt from above in order of count of non-hydrogen atoms, ascending.
Row | Structure (SMILES) | activity change, negative = inhibition
21 | CCOC(=O)c1cnc2c3c(noc13)CCC2 | active: -101%
9 | Oc1oc(-c2cccc3ccccc23)nc1/C=N/c1nccs1 | inconclusive: -54.8%
2 | COc1ccc2nc(NC(=O)c3nc(S(=O)(=O)Cc4ccc(C)cc4)ncc3Cl)sc2c1 | active: -99.6%
